The other results are listed elsewhere or left out. Values are raw readings; no control value is given beside them.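 In the initial screen, polymyxin B was used at a concentration that permeabilizes Salmonella's outer membrane but not its inner membrane. Maximum growth was set by DMSO wells with or without polymyxin B. Since plates varied, data were ranked per plate, and compounds giving the lowest OD600 advanced as hits.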
Test system: Salmonella enterica serovar Typhimurium SL1344
Experiment: bacterial growth OD600 after 18 h with compound and polymyxin B; higher = more bacterial growth (less inhibition)
Conditions: 50 µM, Mueller-Hinton broth

COc1ccc(F)c(CN2CCOc3ccc(C(O)Cc4ccccc4)cc3C2)c1 (stereo unspecified)
bacterial growth OD600 (polymyxin B 0.75 µg/mL): 0.006

COCc1ccc(C(=O)NCC2Cc3cc(-c4nc(C)cnc4C)ccc3O2)o1 (stereo unspecified)
bacterial growth OD600 (polymyxin B 0.75 µg/mL): 0.868

Cc1ccc(C(=O)N(C)CC2CCCN(CCc3ccc(Cl)cc3)C2)s1 (stereo unspecified)
bacterial growth OD600 (polymyxin B 1 µg/mL): 0.923

Cc1ccc2c(c1)CN(Cc1ccccn1)CC(c1ccsc1)O2 (stereo unspecified)
bacterial growth OD600 (polymyxin B 0.75 µg/mL): 0.39

CCC(=O)N[C@@H]1c2ccccc2C2(CCN(C(=O)CCCC(=O)OC)CC2)[C@H]1OCc1cccnc1
bacterial growth OD600 (polymyxin B 0.75 µg/mL): 0.847

Fc1ccc(Oc2ncccc2CNC2CCOCC2)cc1F
bacterial growth OD600 (polymyxin B 1 µg/mL): 0.98

CCc1csc(CNC(=O)c2ccc(NCc3ccccc3)nc2)n1
bacterial growth OD600 (polymyxin B 1 µg/mL): 0.717

COCCN1C(=O)CC(CC(=O)N2CCN(c3cc(C)cc(C)c3)C(=O)C2)(c2ccccc2F)C1=O (stereo unspecified)
bacterial growth OD600 (polymyxin B 0.75 µg/mL): 0.793

CCN(CC)c1ncccc1CNC(=O)Nc1cccc(OC)c1
bacterial growth OD600 (polymyxin B 1 µg/mL): 0.907

O=C(NCC1CCCN(CC#Cc2ccccc2)C1)c1ccc(F)cc1 (stereo unspecified)
bacterial growth OD600 (polymyxin B 1 µg/mL): 0.78

COCC(=O)Nc1cc(C(=O)NCC(C)Oc2cccnc2)c2c(c1)ncn2CCc1ccccc1 (stereo unspecified)
bacterial growth OD600 (polymyxin B 0.75 µg/mL): 0.844

CC(=O)c1ccc(N2CCC(C3CCN(CC(C)C)CC3)C2)nc1 (stereo unspecified)
bacterial growth OD600 (polymyxin B 0.75 µg/mL): 0.827

Cc1nn(C)cc1CN(C)C(=O)CC(c1ccccc1)c1ccccc1Cl (stereo unspecified)
bacterial growth OD600 (polymyxin B 1 µg/mL): 0.83

COCCCC1CCN(C(=O)C2CCC(=O)N(CCCN3CCCC3=O)C2)CC1 (stereo unspecified)
bacterial growth OD600 (polymyxin B 1 µg/mL): 0.941

Cc1ccc(C(=O)N2CCC(C(Cc3ccc(F)cc3F)N(C)C(=O)C3CC3)CC2)s1 (stereo unspecified)
bacterial growth OD600 (polymyxin B 0.75 µg/mL): 0.722

CC1(C)Cc2nc(N3CCOCC3)ncc2C(NC(=O)C2CCCCC2)C1 (stereo unspecified)
bacterial growth OD600 (polymyxin B 0.75 µg/mL): 0.011

CO[C@H]1[C@H](NC(=O)c2ccncc2)c2ccccc2C12CCN(C(=O)CCN1CCCO1)CC2
bacterial growth OD600 (polymyxin B 0.75 µg/mL): 0.801

C=CCCC(=O)N1CCCC(CCc2c(F)cccc2F)C1 (stereo unspecified)
bacterial growth OD600 (polymyxin B 0.75 µg/mL): 0.794

Cc1ncccc1C(=O)N1CC[C@@H](N2CCN(c3ccccc3F)CC2)[C@H](O)C1
bacterial growth OD600 (polymyxin B 1 µg/mL): 0.928

O=C(CC(c1ccccc1)c1ccc2c(c1)OCO2)NCCN1CCOC1=O (stereo unspecified)
bacterial growth OD600 (polymyxin B 0.75 µg/mL): 0.793

CCOC(=O)C1(CCCc2ccccc2)CCN(C(=O)c2csnn2)CC1
bacterial growth OD600 (polymyxin B 1 µg/mL): 0.504

CC(=O)Nc1cc(C(=O)N2CCC(c3ccccc3F)C2)cc2ncn(Cc3ccc(F)cc3)c12 (stereo unspecified)
bacterial growth OD600 (polymyxin B 0.75 µg/mL): 0.835

O=C(Nc1cccc(-n2cccn2)c1)C1CCCN1C(=O)CC1CC1 (stereo unspecified)
bacterial growth OD600 (polymyxin B 1 µg/mL): 0.941

COc1ccc(OC2CCN(C3CCCC3)CC2)c(C(=O)N2CCCN(C=O)CC2)c1
bacterial growth OD600 (polymyxin B 1 µg/mL): 1.22

CCOC(=O)N1CCN(C2CCCN(Cc3ccc4cccc(OC)c4n3)C2)CC1 (stereo unspecified)
bacterial growth OD600 (polymyxin B 0.75 µg/mL): 0.815

COc1cc(CN2Cc3ccccc3OC(c3ccccc3F)C2)cc(OC)c1OC (stereo unspecified)
bacterial growth OD600 (polymyxin B 0.75 µg/mL): 0.01

CN(CCc1ccccn1)c1ncccc1CNC(=O)c1cn2ccccc2n1
bacterial growth OD600 (polymyxin B 1 µg/mL): 0.989

Cc1cnc(CNC(=O)CC(c2cccc(O)c2)c2ccccc2Cl)cn1 (stereo unspecified)
bacterial growth OD600 (polymyxin B 1 µg/mL): 1.01

O=C(Cn1cccn1)N1CCc2onc(C(c3ccccc3)c3ccccc3)c2C1
bacterial growth OD600 (polymyxin B 1 µg/mL): 0.849

COC(=O)CCCC(=O)NC1CCCN(Cc2ccccc2F)C1 (stereo unspecified)
bacterial growth OD600 (polymyxin B 1 µg/mL): 0.9

O=C(NC1CCCCC1)c1ccccc1OC1CCN(C(=O)c2cccnc2)CC1
bacterial growth OD600 (polymyxin B 1 µg/mL): 1.33
